Measurements reported in PubChem BioAssay AID1259405 (NCATS, 2018).

Screen: 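Knock-downs that lift recombinant protein yield in hamster ovary cells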 (primary screen)
System: Chinese hamster CHO-K1 ovary cells with stable secreted eGFP expression
Knock-down reagent: single siRNA against mouse genes, 0.8 pmol siRNA per well (2 µl of 400 nM stock)
Duration: 3 days
Measurement: 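Per-well intracellular GFP measured by laser scanning cytometry, plus viability from ATP luminescence, each relative to plate median of non-targeting control wells, in %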
Reading the numbers: GFP, % of control: higher = more GFP per well, higher productivity; viability (ATP), % of control: higher = more viable cells (more ATP)
Call rule: 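a knock-down is called active if GFP reaches 120% or more of non-targeting control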
Here is an unselected part of about 50,000 reagents. About 4,000 of them (8%) were called active. 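Mouse siRNA library applied to hamster cells; one well for each siRNA.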 Reagents against one gene are numbered here. Reagent sequences are not shown.

gene | reagent | GFP, % of control | viability (ATP), % of control | call
Csprs (GeneID 114564) | 1 | 128 | 81.5 | active
Csprs (GeneID 114564) | 2 | 45.4 | 40.3 | inactive
Csprs (GeneID 114564) | 3 | 105 | 84.1 | inactive
H2-M11 (GeneID 224754) | 1 | 57.2 | 50.4 | inactive
H2-M11 (GeneID 224754) | 2 | 96.2 | 81.2 | inactive
H2-M11 (GeneID 224754) | 3 | 73 | 56.9 | inactive
Trrap (GeneID 100683) | 1 | 166 | 116 | active
Tsc1 (GeneID 64930) | 1 | 53.9 | 62.5 | inactive
Tsc1 (GeneID 64930) | 2 | 53.1 | 74.9 | inactive
Tsc1 (GeneID 64930) | 3 | 136 | 114 | active
Gramd1b (GeneID 235283) | 1 | 43.3 | 70.2 | inactive
Gramd1b (GeneID 235283) | 2 | 19.8 | 63.9 | inactive
Gramd1b (GeneID 235283) | 3 | 43.3 | 64.2 | inactive
Dsc3 (GeneID 13507) | 1 | 71.6 | 63.4 | inactive
Dsc3 (GeneID 13507) | 2 | 84.3 | 79.7 | inactive
G6pc1 (GeneID 14377) | 1 | 111 | 104 | inactive
G6pc1 (GeneID 14377) | 2 | 126 | 73.9 | active
G6pc1 (GeneID 14377) | 3 | 113 | 91.3 | inactive
Or8u3 (GeneID 259015) | 1 | 93.1 | 83.8 | inactive
Or8u3 (GeneID 259015) | 2 | 107 | 98.6 | inactive
Or8u3 (GeneID 259015) | 3 | 67.7 | 58.7 | inactive
Tpcn2 (GeneID 233979) | 1 | 108 | 61.7 | inactive
Tpcn2 (GeneID 233979) | 2 | 75.5 | 52 | inactive
Tpcn2 (GeneID 233979) | 3 | 113 | 126 | inactive
Med23 (GeneID 70208) | 1 | 69.9 | 72.6 | inactive
Med23 (GeneID 70208) | 2 | 113 | 81 | inactive
Med23 (GeneID 70208) | 3 | 60.4 | 102 | inactive
Hgh1 (GeneID 59053) | 1 | 104 | 78.2 | inactive
Hgh1 (GeneID 59053) | 2 | 97.3 | 79.9 | inactive
Hgh1 (GeneID 59053) | 3 | 113 | 76.7 | inactive
Slc7a15 (GeneID 328059) | 1 | 84.6 | 85.2 | inactive
Slc7a15 (GeneID 328059) | 2 | 69.6 | 59.3 | inactive
Slc7a15 (GeneID 328059) | 3 | 77.2 | 101 | inactive
Cyp4v3 (GeneID 102294) | 1 | 101 | 87.6 | inactive
Cyp4v3 (GeneID 102294) | 2 | 95.5 | 95.8 | inactive
Cyp4v3 (GeneID 102294) | 3 | 58 | 73.5 | inactive
Or1e22 (GeneID 259024) | 1 | 42.6 | 56.4 | inactive
Or1e22 (GeneID 259024) | 2 | 63.5 | 65 | inactive
Or1e22 (GeneID 259024) | 3 | 92.9 | 116 | inactive
Dusp23 (GeneID 68440) | 1 | 54.7 | 54.3 | inactive
Dusp23 (GeneID 68440) | 2 | 91.1 | 86 | inactive
Dusp23 (GeneID 68440) | 3 | 79.6 | 56.9 | inactive
Kcp (GeneID 333088) | 1 | 94.7 | 56.8 | inactive
Kcp (GeneID 333088) | 2 | 70.3 | 40.2 | inactive
Kcp (GeneID 333088) | 3 | 193 | 108 | active
Mrpl22 (GeneID 216767) | 1 | 40.3 | 50.7 | inactive
Mrpl22 (GeneID 216767) | 2 | 115 | 64 | inactive
Mrpl22 (GeneID 216767) | 3 | 96.6 | 65 | inactive
Sat1 (GeneID 20229) | 1 | 82 | 102 | inactive
Sat1 (GeneID 20229) | 2 | 120 | 87.6 | active
Sat1 (GeneID 20229) | 3 | 84.9 | 84.8 | inactive
Adamts19 (GeneID 240322) | 1 | 81.6 | 96 | inactive
Adamts19 (GeneID 240322) | 2 | 200 | 109 | active
Adamts19 (GeneID 240322) | 3 | 88.1 | 68.2 | inactive
Gmnc (GeneID 239789) | 1 | 37.9 | 50.5 | inactive
Gmnc (GeneID 239789) | 2 | 64 | 94.8 | inactive
Gmnc (GeneID 239789) | 3 | 71.5 | 77.9 | inactive
Zcchc8 (GeneID 70650) | 1 | 61.6 | 73.9 | inactive
Zcchc8 (GeneID 70650) | 2 | 95.1 | 85.9 | inactive
Zcchc8 (GeneID 70650) | 3 | 88.2 | 99.2 | inactive
Dhrs3 (GeneID 20148) | 1 | 80.2 | 81.2 | inactive
Dhrs3 (GeneID 20148) | 2 | 78.3 | 82.2 | inactive
Dhrs3 (GeneID 20148) | 3 | 61 | 44.9 | inactive
Metap2 (GeneID 56307) | 1 | 111 | 87.4 | inactive
Metap2 (GeneID 56307) | 2 | 62.5 | 56.6 | inactive
Metap2 (GeneID 56307) | 3 | 41.5 | 36.2 | inactive
Prrg2 (GeneID 65116) | 1 | 65 | 57.6 | inactive
Prrg2 (GeneID 65116) | 2 | 61.4 | 80.8 | inactive
Prrg2 (GeneID 65116) | 3 | 45.4 | 63.2 | inactive
Myct1 (GeneID 68632) | 1 | 92.2 | 91 | inactive
Myct1 (GeneID 68632) | 2 | 63 | 83.4 | inactive
Myct1 (GeneID 68632) | 3 | 56.3 | 64.9 | inactive
Zzz3 (GeneID 108946) | 1 | 111 | 69.2 | inactive
Zzz3 (GeneID 108946) | 2 | 89.3 | 61 | inactive
Zzz3 (GeneID 108946) | 3 | 92.4 | 97.2 | inactive
Pdrg1 (GeneID 68559) | 1 | 76.8 | 63.3 | inactive
Pdrg1 (GeneID 68559) | 2 | 66.8 | 55.2 | inactive
Pdrg1 (GeneID 68559) | 3 | 188 | 41.3 | active
Scrn3 (GeneID 74616) | 1 | 85.4 | 95.9 | inactive
Scrn3 (GeneID 74616) | 2 | 46.2 | 72.1 | inactive
Scrn3 (GeneID 74616) | 3 | 96.1 | 78.7 | inactive
E4f1 (GeneID 13560) | 1 | 65.1 | 83 | inactive
E4f1 (GeneID 13560) | 2 | 91.1 | 76.3 | inactive
Kif5c (GeneID 16574) | 1 | 32.9 | 50.2 | inactive
Kif5c (GeneID 16574) | 2 | 63.6 | 72.9 | inactive
Kif5c (GeneID 16574) | 3 | 81.9 | 52.3 | inactive

11 successive entries already listed, quoted:
gene | reagent | GFP, % of control | viability (ATP), % of control | call
Metap2 (GeneID 56307) | 1 | 111 | 87.4 | inactive
Metap2 (GeneID 56307) | 2 | 62.5 | 56.6 | inactive
Metap2 (GeneID 56307) | 3 | 41.5 | 36.2 | inactive
Prrg2 (GeneID 65116) | 1 | 65 | 57.6 | inactive
Prrg2 (GeneID 65116) | 2 | 61.4 | 80.8 | inactive
Prrg2 (GeneID 65116) | 3 | 45.4 | 63.2 | inactive
Myct1 (GeneID 68632) | 1 | 92.2 | 91 | inactive
Myct1 (GeneID 68632) | 2 | 63 | 83.4 | inactive
Myct1 (GeneID 68632) | 3 | 56.3 | 64.9 | inactive
Zzz3 (GeneID 108946) | 1 | 111 | 69.2 | inactive
Zzz3 (GeneID 108946) | 2 | 89.3 | 61 | inactive
